Broadly, the AC50 is the midpoint of the concentration-response curve, whichever way the signal moves. Read a low AC50 as greater potency.

Molecules are shown by their SMILES. This is one part of the list. Further columns of the screen follow, without active or inactive calls. Most of these compounds were active or inconclusive in the main read-out, so they are no random draw. Potencies come from curve fits of mixed quality, noted in brackets.

The source of these data is PubChem BioAssay AID2685 (National Center for Advancing Translational Sciences (NCATS), 2010).

The assay is described as follows: qHTS Assay for Lipid Storage Modulators in Drosophila S3 Cells.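 As to cell number change: cells counted by Cell Tracker Red CMTPX staining in the red channel.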 The settings on record: BODIPY lipid droplet fluorescence, 18-24 h; for cell number change: measured here: cell count max response, cells fed with added oleic acid. A digest of the protocol:
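Laser-scanning cytometry quantifies lipid droplet accumulation (500–530 nm total intensity; droplet/cell object ratio) in oleic acid-fed (400 uM added) Drosophila S3 cells treated with a concentration series. 20 uM Triacsin C defined 100% inhibition.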
(qHTS replaces the single test concentration by a dilution series.)

The mark [1] stands for this setting: measured here: cell number channel AC50, cells fed with added oleic acid.
[2] abbreviates: measured here: lipid fluorescence (Fed channel) AC50, cells fed with added oleic acid.

Consider `O=C(O)c1ccc2c(c1)C(=O)/C(=C\c1ccco1)C2=O`, for which the cell number change turned out to be 1.56%. For the same compound, the AC50 under setting [1] is 3.66 µM [falling, partial curve]. Besides, under setting [2], the AC50 was 6.51 µM [falling, single point]. On to `CC(C)(C)NC(=O)/C(=C\c1ccccc1F)NC(=O)c1ccc([N+](=O)[O-])cc1`, for which the cell number change is 14.9%. Moreover, under setting [2], the AC50 was 0.103 µM [rising, full curve, poor fit]. On to `CCOc1ccccc1-n1nnnc1SCc1nc2ccccc2s1`, for which the cell number change is -9.51%. As for `O=C(Nc1nnc(Cc2ccc(Cl)cc2)s1)c1cccs1`, the cell number change is -74.3%. For the same compound, under setting [1], the AC50 is 29.1 µM [falling, single point]. Besides, under setting [2], the AC50 was 29.1 µM [falling, single point]. With `O=C(c1ccco1)N1CCN(Cc2cccc(F)c2)CC1`, the cell number change was 12.9%. Further, the AC50 under setting [2] is 25.9 µM [falling, single point]. Regarding `Cn1c(=O)c2c(nc(CN3CCN(C(=O)c4ccco4)CC3)n2CC(N)=O)n(C)c1=O`, the cell number change is 30%. For the same compound, the AC50 under setting [1] is 0.461 µM [rising, full curve, poor fit].

For `CCCNC(=O)COC(=O)c1ccccc1C(=O)c1ccc(Cl)c([N+](=O)[O-])c1`, the cell number change was -1.04%. For the same compound, the AC50 under setting [2] is 0.58 µM [falling, single point].

Consider `COc1cc(C(=O)OCC(=O)NC23CC4CC(CC(C4)C2)C3)cc(OC)c1OC`, for which the cell number change came to 14.5%. For the compound `COc1ccc(NC(=O)c2cc3ccccc3oc2=O)c(OC)c1`, the cell number change stood at 22.6%. The AC50 under setting [2] was 0.651 µM [falling, full curve].

Consider `CCN(CC)S(=O)(=O)c1ccc(O)c(NC(=O)c2cc(-c3cc(OC)c(OC)c(OC)c3)nc3ccccc23)c1`, for which the cell number change amounted to 7.21%. For the same compound, the AC50 under setting [2] was 6.51 µM [rising, partial curve].

On to `Cc1cc(NC(=O)c2cc3nc(C4CC4)cc(C(F)(F)F)n3n2)no1`, for which the cell number change came out at 25.7%. Also, the AC50 under setting [1] is 4.11 µM [rising, full curve, poor fit]. Also, the AC50 under setting [2] is 29.1 µM [rising, single point].

Regarding `CC(C)(C)OC(=O)N[C@@H](Cc1ccccc1)C(=O)N[C@@H](CO)[C@H](O)[C@@H]1C[C@@H]1C(=O)N1CCCC1`, the cell number change is 46.6%. Also, the AC50 under setting [1] was 14.6 µM [rising, partial curve]. `Cc1ccc(OCCCCN2CCc3ccccc3C2)c(C)c1`: the cell number change was -13.1%. The AC50 under setting [2] is 0.58 µM [falling, single point]. For `N#C/C(=C\c1ccccc1[N+](=O)[O-])c1nc(C2CC2)cs1`, the cell number change came to 10.2%. The AC50 under setting [1] was 3.66 µM [falling, partial curve]. Besides, the AC50 under setting [2] was 29.1 µM [rising, single point].

For `CC(C)[C@H](NC(=O)c1ccccc1F)C(=O)Nc1ccc2c(c1)OCO2`, the cell number change came out at 2.27%. Regarding `COC(=O)c1sc(S(=O)(=O)N2CCN(c3ccc(OC)cc3)CC2)c(C(=O)OC)c1C`, the cell number change is -19.6%. As for `Cc1[nH]n(-c2ccccc2)c(=O)c1-c1cccc(Cl)c1`, the cell number change is -17.3%. In addition, the AC50 under setting [2] is 0.206 µM [falling, full curve]. `CN(C)c1ccc(NC(=O)CCn2c(=S)oc3ccccc32)cc1`: the AC50 was 1.3 µM [rising, full curve, poor fit] under setting [1] and 2.06 µM [rising, partial curve] under setting [2]. Take `O=C(CSCc1ccccc1)N1CCN(S(=O)(=O)c2ccc(F)cc2)CC1`: the cell number change was -3.76%. Consider `Cc1ccccc1-n1ncc2c1CC(C)(C)CC2NC(=O)CCN1Cc2ccccc2C1=O` (configuration not stated), for which the cell number change is 24.4%. Further, under setting [2], the AC50 was 29.1 µM [rising, single point]. For the compound `O=C(NCc1ccccn1)c1ccc(CS(=O)(=O)Cc2ccc(Cl)cc2)o1`, under setting [2], the AC50 was 0.259 µM [rising, partial curve, poor fit].

For `Cc1nc(Oc2ccccc2)c2ccsc2n1`, the cell number change is -8.95%. Also, the AC50 under setting [2] is 0.146 µM [falling, full curve, poor fit]. `CCOC(=O)c1c(C)oc2ccc(OC(=O)N3CCOCC3)cc12`: the cell number change turned out to be 9.17%. On to `C=CCNC(=O)c1snnc1-c1ccccc1`, for which the cell number change was 4.45%. Further, the AC50 under setting [1] is 0.517 µM [rising, partial curve]. Turning to `Cc1ccc2nsnc2c1S(=O)(=O)N1CCN(Cc2ccc3c(c2)OCO3)CC1`, under setting [2], the AC50 was 2.31 µM [rising, partial curve]. `COc1ccc(CN2C(=O)NC(C)(c3ccc(C)cc3)C2=O)cc1F` (configuration not stated): the cell number change came to 112%. Under setting [1], the AC50 is 7.31 µM [rising, partial curve, poor fit]. In addition, the AC50 under setting [2] is 4.11 µM [rising, single point].

Turning to `CCOC(=O)CC1OC(=O)c2cc3c(cc21)C(=O)OC3CC(=O)OCC` (configuration not stated), the cell number change was -34.6%. Further, under setting [1], the AC50 was 5.17 µM [falling, partial curve, poor fit]. The AC50 under setting [2] was 29.1 µM [falling, single point]. Regarding `COc1c(C)cc(Br)cc1C(=O)Nc1ccccc1N1CCN(C(=O)c2ccccc2)CC1`, the cell number change came out at 90.2%. Under setting [2], the concentration at half-maximal activity (AC50) was 29.1 µM [rising, partial curve]. Consider `COc1ccc(-c2csc(C)n2)cc1OC`, for which the cell number change worked out at 16.4%. Moreover, under setting [2], the AC50 was 6.51 µM [rising, single point].

For the compound `Cc1nc(C)n(CCNS(=O)(=O)c2ccccc2)n1`, the cell number change was 2.52%. As for `Cn1c(CCN2CCCC2)nc2cc(NS(=O)(=O)c3ccc(Cl)cc3)ccc21`, the cell number change was -1.15%. The concentration at half-maximal activity (AC50) under setting [2] is 6.51 µM [rising, single point].

`O=C(C(Cl)Cl)N1CCN(Cc2ccc3c(c2)OCO3)CC1`: the cell number change is -2.11%. Further, under setting [2], the AC50 is 25.9 µM [rising, single point]. `Cc1cccc(C)c1N(CC(=O)Nc1cc(Cl)ccc1Oc1ccccc1)S(C)(=O)=O`: the AC50 under setting [1] was 6.51 µM [rising, single point]. Regarding `CCCOc1ccc(N2CC(C(=O)NCCc3ccc(OC)c(OC)c3)CC2=O)cc1` (configuration not stated), the cell number change was -16.3%. Further, the AC50 under setting [2] was 23.1 µM [falling, partial curve, poor fit]. `CC1CCCC(C)N1CCCNC(=O)Cn1ncc2c3ccccc3n(C)c2c1=O` (configuration not stated): the cell number change is 1.89%. In addition, under setting [2], the half-maximal activity concentration (AC50) was 29.1 µM [rising, single point]. With `COCc1cc(/C=N\NC(=O)Cc2ccc(OC)cc2)ccc1OC`, the cell number change was 30.8%. Under setting [1], the concentration at half-maximal activity (AC50) was 8.2 µM [rising, partial curve]. Also, the AC50 under setting [2] was 2.59 µM [rising, single point]. In the case of `CCNC(=O)C1=C(O)c2sccc2N(C)S1(=O)=O`, the cell number change is -49.7%. Consider `Cc1cc(C)nc(NS(=O)(=O)c2ccc(N/C=C\C(=O)c3ccc(Cl)cc3)cc2)n1`, for which the cell number change is -50.8%. As to `O=C(c1ccccc1)c1ccc2n1CCC2C(=O)O` (configuration not stated), the cell number change worked out at 16%. Also, under setting [2], the AC50 is 23.1 µM [rising, single point]. With `COC(=O)C1(C)NC(c2ccccc2F)C2C(=O)N(c3ccccc3)C(=O)C21` (configuration not stated), the cell number change turned out to be 18.7%. The AC50 under setting [2] was 4.11 µM [rising, full curve, poor fit].

For `CCOC(=O)C1C(=O)NC(N2CCOCC2)=NC1c1ccco1` (configuration not stated), the cell number change was -22.5%. Consider `COc1ccc(C(=O)O/N=C/c2c(C(F)(F)F)nn(C)c2SCc2ccccc2Cl)cc1`, for which the cell number change was -6.24%. Besides, the AC50 under setting [1] was 1.46 µM [falling, partial curve]. `CN1CCN(NC(=O)CC(C)(C)C)CC1`: the cell number change was -19.1%. The AC50 under setting [1] was 0.517 µM [rising, single point]. In the case of `O=S(=O)(Nc1ccc2c(c1)nc1n2CCOC1)c1ccc(Cl)cc1`, the cell number change came to 7.54%. Moreover, the AC50 under setting [2] is 2.31 µM [rising, full curve, poor fit]. Turning to `Nc1ncnc(NNC(=O)CNC(=O)c2c(F)cccc2Cl)c1[N+](=O)[O-]`, the cell number change was -0.679%. Besides, the AC50 under setting [1] was 0.0651 µM [falling, full curve, poor fit]. Further, the AC50 under setting [2] was 0.13 µM [falling, full curve, poor fit]. Take `COc1c(Br)cc2c(C)c(C(=O)N3CCOCC3)oc2c1Br`: the cell number change worked out at 3.24%. Further, the half-maximal activity concentration (AC50) under setting [2] is 2.31 µM [rising, partial curve]. With `Cc1cc2nc(CSc3ccc(Cl)cc3)cc(=O)n2[nH]1`, the cell number change was -23.4%. Take `CCOC(=O)N1CCN(C(=O)c2ccc(C)c(S(=O)(=O)Nc3ccccc3)c2)CC1`: the AC50 under setting [1] is 0.103 µM [rising, full curve, poor fit]. Consider `CN(c1ccccc1C(=O)Nc1ccc(F)c(Cl)c1)S(C)(=O)=O`, for which the cell number change was found to be 89.2%. The AC50 under setting [2] is 0.13 µM [falling, full curve, poor fit]. For the compound `CN1CCN(Cc2c(O)ccc3c(-c4ccccc4)cc(=O)oc23)CC1`, the cell number change was -9.12%. The AC50 under setting [2] is 3.66 µM [falling, single point]. As to `N#C/C(=C\c1ccc(Cl)c([N+](=O)[O-])c1)c1ccccn1`, the cell number change is -4.81%. In addition, the AC50 under setting [2] is 4.47 µM [falling, full curve]. `CCCN(CC(=O)Nc1ccccc1OC)C(=O)CCCN1C(=O)c2ccccc2C1=O`: the AC50 under setting [2] was 5.17 µM [rising, single point]. Turning to `COc1ccc(Br)cc1/C=c1\sc2nc(-c3ccco3)nn2c1=O`, the cell number change was -58.7%. Under setting [1], the AC50 was 0.92 µM [falling, partial curve]. Under setting [2], the half-maximal activity concentration (AC50) is 1.16 µM [falling, partial curve]. For the compound `O=[N+]([O-])c1ccc(N2CCN(S(=O)(=O)c3ccccc3)CC2)cc1NCCN1CCOCC1`, the concentration at half-maximal activity (AC50) under setting [1] is 1.64 µM [rising, partial curve] and the AC50 under setting [2] was 0.326 µM [rising, full curve]. On to `COc1cccc2cc(CC(=O)c3cc(C)ccc3C)c(=O)oc12`, for which the cell number change was 13.5%. Besides, the AC50 under setting [2] is 8.2 µM [rising, partial curve].

Consider `CCC[C@@H]1Cc2ccccc2N1C(C)=O`, for which the cell number change was determined as 20.2%. The AC50 under setting [1] is 1.16 µM [falling, single point]. `Cc1cc(NC(=O)CSc2nnnn2-c2ccc(C)c(Cl)c2)no1`: the cell number change turned out to be 12.7%. Moreover, under setting [1], the AC50 was 7.31 µM [rising, single point]. Also, under setting [2], the half-maximal activity concentration (AC50) is 29.1 µM [rising, single point]. As for `Cc1cc(C)c(S(=O)(=O)N2CCOC2CNC(=O)C(=O)NCCN2CCOCC2)c(C)c1` (configuration not stated), the cell number change is -19.4%. As to `COc1ccccc1N1CCN(CC(=O)c2c(C)[nH]c3cc(C)ccc23)CC1`, the AC50 under setting [2] is 0.092 µM [rising, full curve, poor fit].

On to `C=CCn1cc(/C=N/N2C(=O)C3C4C=CC(C4)C3C2=O)c2ccccc21` (configuration not stated), for which the cell number change was -18.4%. Further, under setting [2], the AC50 is 32.6 µM [falling, single point].
